For five molecules, binding results are on record in patent US20180243435A1 (AbbVie / Abbott, published 2018).

Protein sequences, listed by entry. Tags and fused reporters are not part of them. Lines headed by an entry give the natural chain unless they say otherwise; changes in a name come on top.
UniProt Q9NYJ7: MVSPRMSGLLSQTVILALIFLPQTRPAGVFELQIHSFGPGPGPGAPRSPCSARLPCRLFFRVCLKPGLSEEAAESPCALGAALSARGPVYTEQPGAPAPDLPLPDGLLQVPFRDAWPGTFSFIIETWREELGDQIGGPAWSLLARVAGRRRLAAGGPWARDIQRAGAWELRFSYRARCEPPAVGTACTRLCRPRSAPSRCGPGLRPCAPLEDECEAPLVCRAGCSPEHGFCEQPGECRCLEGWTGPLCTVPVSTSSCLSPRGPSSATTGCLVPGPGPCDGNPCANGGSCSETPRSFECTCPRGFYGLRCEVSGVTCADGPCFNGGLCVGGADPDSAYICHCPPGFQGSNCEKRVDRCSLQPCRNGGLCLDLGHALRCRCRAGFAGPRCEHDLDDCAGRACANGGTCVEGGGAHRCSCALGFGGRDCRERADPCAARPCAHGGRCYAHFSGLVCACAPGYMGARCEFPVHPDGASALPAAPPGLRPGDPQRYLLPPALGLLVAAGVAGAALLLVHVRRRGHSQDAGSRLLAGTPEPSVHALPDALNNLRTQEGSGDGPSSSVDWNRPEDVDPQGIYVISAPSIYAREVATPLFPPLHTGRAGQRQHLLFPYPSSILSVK

Substitutions are numbered along the chain they refer to. Results are given in words; binding and its absence hold for the method and conditions named. Some binding calls cover weakened binding; strength is not graded here.

B1: hSC16.15 (antibody, human IgG1, kappa, V domains shown)
VH: QVQLVQSGAEVKKPGASVKVSCKASGYTFTRYWIHWIRQAPGQGLEWMGYINPTTVYTEFNQNFKDRVTMTRDTSTSTVYMELSSLRSEDTAVYYCARGGSNFFDYWGQGTTVTVSS
VL: AIQLTQSPSSLSASVGDRVTITCRASENIYYNLAWYQQKPGKAPKLLIYTANSLEDGVPSRFSGSGSGTDFTLTISSLQPEDFATYFCKQAYDVPPTFGGGTKLEIKR
B2: hSC16.13 (antibody, human IgG1, kappa, V domains shown)
VH: QITLKESGPTLVKPTQTLTLTCTFSGFSLSTSGMGVGWIRQPPGKALEWLAHIWWDDVKRYSPSLKSRLTITKDTSKNQVVLTMTNMDPVDTATYYCARIVSFDNDVVSAMDYWGQGTLVTVSS
VL: DIQMTQSPSSLSASVGDRVTITCSASSSVSYMYWYQQKPGKAPKLLIYLTSNLASGVPSRFSGSGSGTDFTLTISSLQPEDFATYYCQQWRSNPFTFGQGTKLEIKR
B3: hSC16.25 (antibody, human IgG1, kappa, V domains shown)
VH: QITLKESGPTLVKPTQTLTLTCTFSGFSLSTSGMGVGWIRQPPGKALEWLTDIWWDDNKYYNPSLKSRLTITKDTSKNQVVLTMTNMDPVDTATYYCARRVNYYYDPYYAMDYWGQGTLVTVSS
VL: EIVLTQSPDFQSVTPKEKVTITCSASSSVSYMHWYQQKPDQSPKLLIKDSSKLASGVPSRFSGSGSGTDFTLTINSLEAEDAATYYCQQWSSNPLTFGQGTKLEIKR
B4: hSC16.34 (antibody, human IgG1, kappa, V domains shown)
VH: QVQLVQSGAEVKKPGASVKVSCKASGYTFTNYGMNWVRQAPGQRLEWMGWINTYTGDPTYADDFKGRVTITRDTSASTAYMELSSLRSEDTAVYYCARIGGNSPSDYWGQGTTVTVSS
VL: DIQMTQSPSSLSASVGDRVTITCKASQSVSNDVAWYQQKPGKVPKLLIYYASNRYSGVPSRFSGSGSGTDFTLTISSLQPEDVATYFCQQDYSSPWTFGGGTKVEIKR
B5: hSC16.56 (antibody, human IgG1, kappa, V domains shown)
VH: B4 VH with R44G, D57E, I70M, R72T, A76T, S84R, E89D, G101D, N102S, T113L
VL: EIVMTQSPATLSVSPGERATLSCKASQSVSNDVVWYQQKPGQAPRLLIYYASNRYTGIPARFSGSGSGTEFTLTISSLQSEDFAVYYCQQDYTSPWTFGQGTKLEIKR

In this assay the target is human DLL3 (human) (UniProt Q9NYJ7). Briefly: surface plasmon resonance. In general terms: Surface plasmon resonance follows binding to a sensor surface in real time, without labels.
For B1, the binding entry is “binds”.

Turning to B2, the binding result was “binds”.

In the case of B3, the binding entry was “binds”.

In the case of B4, the binding entry is recorded as “binds”.

Take B5: the binding entry is “binds”.
